Results as given in patent publication US7893089B2, “IL-8 receptor antagonists” (GlaxoSmithKline, LLC, priority 2006, dated 2011).
Some of these results come from one statement about several compounds together.

The compounds below were run against recombinant human CXCR1 (IL-8 type α) and CXCR2 (IL-8 type β) receptors (assay: Receptor binding assay: [125I] IL-8 binding to CHO-CXCR1 or CHO-CXCR2 membranes (SPA)). Conditions: 0.23 nM [125I] IL-8, receptor not specified for the result, read-out: IC50, inhibition of [125I] IL-8 binding.
In the case of `O=C(Nc1ccccc1OC(F)(F)F)Nc1ccc(Cl)c(S(=O)(=O)CC2CCNC2)c1O` (centres unmarked) [Example 5], the IC50 is reported as < 30 µM. For `O=C(Nc1ccc(Cl)c(S(=O)(=O)[C@H]2CCNC2)c1O)Nc1cccc(F)c1Cl` [Example 25, N-(2-chloro-3-fluorophenyl)-N′-{4-chloro-2-hydroxy-3-[(3S)-3-pyrrolidinylsulfonyl]-phenyl}urea], the IC50 was < 30 µM. For `O=C(Nc1ccc(Cl)c(S(=O)(=O)[C@H]2CCCNC2)c1O)Nc1cccc(F)c1Cl` [Example 3, N-(2-chloro-3-fluorophenyl)-N′-{4-chloro-2-hydroxy-3-[(3S)-3-piperidinylsulfonyl]phenyl}urea], the IC50 was < 30 µM. In the case of `O=C(Nc1ccccc1Oc1ccccc1)Nc1ccc(Cl)c(S(=O)(=O)C2CCNCC2)c1O` [Example 28, N-[4-chloro-2-hydroxy-3-(4-piperidinylsulfonyl)phenyl]-N′-[2-(phenyloxy)phenyl]urea], the IC50 is reported as < 30 µM. `Cc1c(F)cccc1NC(=O)Nc1ccc(Cl)c(S(=O)(=O)CC2CCNC2)c1O` (centres unmarked) [Example 7, N-{4-chloro-2-hydroxy-3-[(3-pyrrolidinylmethyl)-sulfonyl]phenyl}-N′-(3-fluoro-2-methylphenyl)urea] was tested, and the IC50 was < 30 µM. For `O=C(Nc1cccnc1Cl)Nc1ccc(Cl)c(S(=O)(=O)C2CCNCC2)c1O` [Example 21, N-[4-chloro-2-hydroxy-3-(4-piperidinylsulfonyl)-phenyl]-N′-(2-chloro-3-pyridinyl)urea], the IC50 was < 30 µM. For `O=C(Nc1ccc(Cl)c(S(=O)(=O)C2CCNCC2)c1O)Nc1cccc2c1OC(F)(F)O2` [Example 22, N-[4-chloro-2-hydroxy-3-(4-piperidinylsulfonyl)-phenyl]-N′-(2,2-difluoro-1,3-benzodioxol-4-yl)urea], the IC50 was < 30 µM. `CCOC(=O)N1CCC(S(=O)(=O)c2c(Cl)ccc(NC(=O)Nc3cccc(F)c3Cl)c2O)CC1` [Example 30, ethyl 4-{[6-chloro-3-({[(2-chloro-3-fluorophenyl)amino]-carbonyl}amino]-2-hydroxyphenyl[sulfonyl}-1-piperidinecarboxylate] was tested, and the IC50 was < 30 µM. `CCc1ccccc1NC(=O)Nc1ccc(Cl)c(S(=O)(=O)C2CCCNC2)c1O` (centres unmarked) [Example 11, N-[4-chloro-2-hydroxy-3-(3-piperidinylsulfonyl)-phenyl]-N′-(2-ethylphenyl)urea] was tested, and the IC50 was < 30 µM. `Cc1c(F)cccc1NC(=O)Nc1ccc(Cl)c(S(=O)(=O)C2CCCNC2)c1O` (centres unmarked) [Example 14, N-[4-chloro-2-hydroxy-3-(3-piperidinylsulfonyl)-phenyl]-N′-(3-fluoro-2-methylphenyl)urea] was tested, and the IC50 was < 30 µM. With `O=C(Nc1ccccc1Oc1ccccc1)Nc1ccc(Cl)c(S(=O)(=O)C2C[C@H]3CC[C@@H](C2)N3)c1O` (some centres unmarked) [Example 33] the IC50 was < 30 µM. With `CCc1ccccc1NC(=O)Nc1ccc(Cl)c(S(=O)(=O)[C@@H]2CCNC2)c1O` [Example 37, N-{4-chloro-2-hydroxy-3-[(3R)-3-pyrrolidinylsulfonyl]-phenyl}-N′-(2-ethylphenyl)urea] the IC50 was < 30 µM. For `O=C(Nc1ccc(Cl)c(S(=O)(=O)C2CNC2)c1O)Nc1cccc(F)c1Cl` [Example 8, N-[3-(3-azetidinylsulfonyl)-4-chloro-2-hydroxyphenyl]-N′-(2-chloro-3-fluorophenyl)urea], the IC50 was < 30 µM. For `O=C(Nc1ccc(Cl)c(S(=O)(=O)C2CCNCC2)c1O)Nc1cccc(F)c1Cl` [Example 17, N-(2-chloro-3-fluorophenyl)-N′-[4-chloro-2-hydroxy-3-(4-piperidinylsulfonyl)-phenyl]urea], the IC50 was < 30 µM. With `O=C(Nc1cccnc1Cl)Nc1ccc(Cl)c(S(=O)(=O)C2CNC2)c1O` [Example 6, N-[3-(3-azetidinylsulfonyl)-4-chloro-2-hydroxyphenyl]-N′-(2-chloro-3-pyridinyl)urea] the IC50 was < 30 µM. In the case of `O=C(Nc1ccc(Cl)c(S(=O)(=O)C2C[C@H]3CC[C@@H](C2)N3)c1O)Nc1cccc(F)c1Cl` (some centres unmarked) [Example 31], the IC50 is reported as < 30 µM. With `Cc1c(F)cccc1NC(=O)Nc1ccc(Cl)c(S(=O)(=O)C2CNC2)c1O` [Example 9, N-[3-(3-azetidinylsulfonyl)-4-chloro-2-hydroxyphenyl]-N′-(3-fluoro-3-methylphenyl)urea] the IC50 was < 30 µM. `O=C(Nc1cccnc1Cl)Nc1ccc(Cl)c(S(=O)(=O)C2CCCNC2)c1O` (centres unmarked) [Example 12, N-[4-chloro-2-hydroxy-3-(3-piperidinylsulfonyl-)phenyl]-N′-(2-chloro-3-pyridinyl)urea] was tested, and the IC50 was < 30 µM. `Cc1c(F)cccc1NC(=O)Nc1ccc(Cl)c(S(=O)(=O)C2CCNCC2)c1O` [Example 18, N-[4-chloro-2-hydroxy-3-(4-piperidinylsulfonyl)-phenyl]-N′-(3-fluoro-2-methylphenyl)urea] was tested, and the IC50 was < 30 µM. With `O=C(Nc1ccccc1Oc1ccccc1)Nc1ccc(Cl)c(S(=O)(=O)[C@H]2CCNC2)c1O` [Example 26, N-{4-chloro-2-hydroxy-3-[(3S)-3-pyrrolidinylsulfonyl]-phenyl}-N′-[2-(phenyloxy)phenyl] urea] the IC50 was < 30 µM. `O=C(Nc1cccnc1Cl)Nc1ccc(Cl)c(S(=O)(=O)[C@H]2CCCNC2)c1O` [Example 2, N-{4-chloro-2-hydroxy-3-[(3S)-3-piperidinylsulfonyl]phenyl}-N′-(2-chloro-3-pyridinyl)urea] was tested, and the IC50 was < 30 µM. In the case of `Cc1c(F)cccc1NC(=O)Nc1ccc(Cl)c(S(=O)(=O)[C@H]2CCCNC2)c1O` [Example 1, N-{4-chloro-2-hydroxy-3-[(3S)-3-piperidinylsulfonyl]phenyl}-N′-(3-fluoro-2-methylphenyl)urea], the IC50 is reported as < 30 µM. `CCOC(=O)N1CCC(S(=O)(=O)c2c(Cl)ccc(NC(=O)Nc3cccc(F)c3C)c2O)CC1` [Example 32, ethyl 4-{[6-chloro-3-({[(3-fluoro-2-methylphenyl)amino]-carbonyl}amino]-2-hydroxyphenyl[sulfonyl}-1-piperidinecarboxylate] was tested, and the IC50 was < 30 µM. In the case of `O=C(Nc1ccccc1OC(F)(F)F)Nc1ccc(Cl)c(S(=O)(=O)C2CCNCC2)c1O` [Example 19, N-[4-chloro-2-hydroxy-3-(4-piperidinylsulfonyl)-phenyl]-N′-{2-[(trifluoromethyl)oxy]-phenyl}urea], the IC50 is reported as < 30 µM. With `CCOC(=O)N1CCC(S(=O)(=O)c2c(Cl)ccc(NC(=O)Nc3ccccc3Oc3ccccc3)c2O)CC1` [Example 27, Ethyl 4-({6-chloro-2-hydroxy-3-[({[2-(phenyloxy)phenyl]amino}carbonyl)amino]phenyl}sulfonyl)-1-piperidinecarboxylate] the IC50 was < 30 µM. With `Cc1c(F)cccc1NC(=O)Nc1ccc(Cl)c(S(=O)(=O)[C@H]2CCNC2)c1O` [Example 24, N-{4-chloro-2-hydroxy-3-[(3S)-3-pyrrolidinylsulfonyl]-phenyl}-N′-(3-fluoro-2-methylphenyl)urea] the IC50 was < 30 µM. `O=C(Nc1cccnc1Cl)Nc1ccc(Cl)c(S(=O)(=O)[C@H]2CCNC2)c1O` [Example 23, N-{4-chloro-2-hydroxy-3-[(3S)-3-pyrrolidinylsulfonyl]-phenyl}-N′-(2-chloro-3-pyridinyl)urea] was tested, and the IC50 was < 30 µM. `O=C(Nc1cccnc1Cl)Nc1ccc(Cl)c(S(=O)(=O)C2C[C@H]3CC[C@@H](C2)N3)c1O` (stereo partly drawn) [Example 38, N-{3-[(1R,5S)-8-azabicyclo[3.2.1]oct-3-ylsulfonyl]-4-chloro-2-hydroxyphenyl}-N′-(2-chloro-3-pyridinyl)urea] was tested, and the IC50 was < 30 µM. For `O=C(Nc1ccc(Cl)c(S(=O)(=O)C2CCCNC2)c1O)Nc1cccc(Cl)c1Cl` (centres unmarked) [Example 16, N-[4-chloro-2-hydroxy-3-(3-piperidinylsulfonyl)-phenyl]-N′-(2,3-dichlorophenyl)urea], the IC50 was < 30 µM. `O=C(Nc1ccc(Cl)c(S(=O)(=O)C2CCCNC2)c1O)Nc1cccc(F)c1Cl` (centres unmarked) [Example 15, N-(2-chloro-3-fluorophenyl)-N′-{4-chloro-2-hydroxy-3-(3-piperidinylsulfonyl)-phenyl]urea] was tested, and the IC50 was < 30 µM. `O=C(Nc1ccc(Cl)c(S(=O)(=O)[C@@H]2CCNC2)c1O)Nc1cccc2c1OC(F)(F)O2` [Example 35, N-{4-chloro-2-hydroxy-3-[(3R)-3-pyrrolidinylsulfonyl]-phenyl}-N′-(2,2-difluoro-1,3-benzodioxol-4-yl)urea] was tested, and the IC50 was < 30 µM. In the case of `Cc1c(F)cccc1NC(=O)Nc1ccc(Cl)c(S(=O)(=O)C2C[C@H]3CC[C@@H](C2)N3)c1O` (stereo partly drawn) [Example 36, N-{3-[(1R,5S)-8-azabicyclo[3.2.1]oct-3-ylsulfonyl]-4-chloro-2-hydroxyphenyl}-N′-(3-fluoro-2-methylphenyl)urea], the IC50 is reported as < 30 µM. For `O=C(Nc1ccccc1OC(F)(F)F)Nc1ccc(Cl)c(S(=O)(=O)[C@@H]2CCNC2)c1O` [Example 34], the IC50 was < 30 µM. For `CCc1ccccc1NC(=O)Nc1ccc(Cl)c(S(=O)(=O)C2CCNCC2)c1O` [Example 20, N-[4-chloro-2-hydroxy-3-(4-piperidinylsulfonyl)-phenyl]-N′-(2-ethylphenyl)urea], the IC50 was < 30 µM. With `O=C(Nc1ccc(Cl)c(S(=O)(=O)CC2CCNC2)c1O)Nc1cccc(F)c1Cl` (centres unmarked) [Example 10, N-(2-chloro-3-fluorophenyl)-N′-{4-chloro-2-hydroxy-3-[(3-pyrrolidinylmethyl)-sulfonyl]phenyl}urea] the IC50 was < 30 µM. For `O=C(Nc1ccc(Cl)c(S(=O)(=O)[C@@H]2CCNC2)c1O)Nc1cccc(F)c1Cl` [Example 29, N-(2-chloro-3-fluorophenyl)-N′-{4-chloro-2-hydroxy-3-[(3R)-3-pyrrolidinylsulfonyl]-phenyl}urea], the IC50 was < 30 µM. With `O=C(Nc1ccccc1OC(F)(F)F)Nc1ccc(Cl)c(S(=O)(=O)C2CCCNC2)c1O` (centres unmarked) [Example 13, N-[4-chloro-2-hydroxy-3-(3-piperidinylsulfonyl)-phenyl]-N′-{2-[(trifluoromethyl)oxy]-phenyl}urea] the IC50 was < 30 µM. For `Cc1c(F)cccc1NC(=O)Nc1ccc(Cl)c(S(=O)(=O)[C@@H]2C[C@H]3CC[C@@H](C2)N3C)c1O` [Example 4, N-(4-chloro-2-hydroxy-3-{[(3-exo)-8-methyl-8-azabicyclo[3.2.1]oct-3-yl]sulfonyl}phenyl)-N′-(3-fluoro-2-methylphenyl)urea], the IC50 was < 30 µM.
